# From PubChem BioAssay AID504444 (National Center for Advancing Translational Sciences (NCATS), 2011)
# Out of some 360,000 compounds screened, about 7,500 (2.1%) were called active. Inconclusive results, whose numbers are uncertain, are shown with a selection of clear calls. The call rests on the fitted dose curve; in most records, active means well fitted inhibition curve with a large enough effect; inconclusive means small, poorly fitted or top-dose-only effect, or effect the other way; inactive means flat fitted curve, though single readings scatter. Where the call is inconclusive, the potency comes from a doubtful curve fit.
# Experiment: Nrf2 qHTS screen for inhibitors; further: nearly all actives have a fitted effect of over 60% in size
# Details: A549 ARE-Fluc reporter, luciferase luminescence, 18-24 h; activity change, negative = inhibition: at 46 µM (top of the series)
# How it was run: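 Reporter: ARE-Fluc in A549. Exposure: 18-24 h, 37 °C, 5% CO2, 5% FBS OPTI-MEM. Readouts: fluorescent cytotoxicity (CellTiter-Fluor), then luminescent Nrf2 signal after BugLite.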
# On the % scale 0 is the no-effect control and ±100 the full control effect; potency means the concentration at half of the fitted maximal effect.
Structure (SMILES),Potency,"activity change, negative = inhibition"
Cc1ccc(NC(=O)c2ccccc2CCc2ccccc2)c(C)c1,"inconclusive: 2.06 µM [falling, partial curve, poor fit]",
CCn1c(C(=O)NCc2ccc(OC)cc2)cc2sc(Cl)cc21,"inconclusive: 32.6 µM [falling, single point]",
COc1ccc(C(=O)Nc2ccc(Cl)c(S(=O)(=O)N3CCOCC3)c2)cc1,active: 9.2 µM,
O=C(Cc1ccc(Br)cc1)c1ccc(O)cc1O,,inactive: 8.78%
CCn1cc(C(=O)N2CCN(c3ccccc3)CC2)c(=O)c2cc(S(=O)(=O)N3CCCC3)ccc21,"inconclusive: 18.4 µM [falling, partial curve, poor fit]",
COc1cccc(C(=O)Nc2nc3nc(C)c(C)c(=O)n3[nH]2)c1,"inconclusive: 0.82 µM [activator, partial curve, poor fit]",
O=C(CCCn1c(=S)[nH]c2cc3c(cc2c1=O)OCO3)N1CCN(c2ccc(F)cc2)CC1,"inconclusive: 16.4 µM [falling, single point]",
CCOc1ccc(N=c2scc(-c3ccc(OC)cc3)n2CCO)cc1,"inconclusive: 20.6 µM [falling, single point]",
COc1ccc(OCCNC(=O)c2cccc(Oc3ccc(C(F)(F)F)cc3[N+](=O)[O-])c2)cc1,"inconclusive: 29.1 µM [falling, single point]",
Cc1onc(-c2ccccc2)c1NC(=O)N(CCC#N)Cc1ccccc1,,inactive: -5.22%
CN(C)/C=C/C(=O)c1cnc(-c2ccccc2Cl)s1,"inconclusive: 4.11 µM [activator, full curve]",
CCCCn1nc(C(=O)Nc2c(C)n(C)n(-c3ccccc3)c2=O)c2ccccc2c1=O,"inconclusive: 5.8 µM [falling, partial curve, poor fit]",
CCOC(=O)c1c(C)oc2c1c(C=NCCC(=O)O)c(O)c1ccccc12,active: 20.6 µM,
COC(=O)c1cccc(C#CC(NP(=O)(c2ccccc2)c2ccccc2)c2ccccc2)c1 (centres undefined),"inconclusive: 29.1 µM [falling, single point]",
O=C(c1cc2sccc2n1Cc1ccccc1)N1CCN(c2nc3ccccc3s2)CC1,"inconclusive: 7.31 µM [falling, partial curve, poor fit]",
COc1ccc(S(=O)(=O)N2CCCN(CC(=O)C(C)(C)C)CC2)cc1,,inactive: 5.31%
COc1ccc([C@H]2CC(=O)C=C(c3ccccc3OC)C2)cc1OC,"inconclusive: 20.6 µM [falling, partial curve, poor fit]",
Cc1cc2c(s1)c1cnn(Cc3cc(C(F)(F)F)ccc3F)c(=O)c1n2C,,inactive: 3.61%
Cc1ccc(O)c(/C=N/NC(=O)COc2ccc3c(C)cc(=O)oc3c2)c1,"inconclusive: 16.4 µM [falling, single point]",
COc1cc(NS(=O)(=O)c2ccc(NC(=S)NC(=O)/C=C/c3ccc(OC)c(OC)c3)cc2)ncn1,,inactive: -12.5%
O=C(Nc1ccc([N+](=O)[O-])cc1)Nc1nc(-c2ccc(Cl)s2)cs1,"inconclusive: 25.9 µM [falling, single point]",
O=C(CNC(=O)C1COc2ccccc2O1)N/N=C/c1ccc(O)cc1O (centres undefined),"inconclusive: 20.6 µM [falling, single point]",

# Of the compounds above, these contain an NH in an aromatic ring:
Structure (SMILES),Potency,"activity change, negative = inhibition"
COc1cccc(C(=O)Nc2nc3nc(C)c(C)c(=O)n3[nH]2)c1,"inconclusive: 0.82 µM [activator, partial curve, poor fit]",
O=C(CCCn1c(=S)[nH]c2cc3c(cc2c1=O)OCO3)N1CCN(c2ccc(F)cc2)CC1,"inconclusive: 16.4 µM [falling, single point]",

# Following part

Structure (SMILES),Potency,"activity change, negative = inhibition"
Cc1ccccc1OCCC(=O)OCC(=O)c1c(N)n(CC(C)C)c(=O)n(C)c1=O,"inconclusive: 23.1 µM [falling, single point]",
O=C(Cn1cnc2scc(-c3ccc(F)cc3)c2c1=O)N1CCOCC1,,inactive: -5.36%
Cc1ccc(S(=O)(=O)CCC(=O)Nc2sccc2C(N)=O)cc1,,inactive: -5.71%
Cc1cc(C)cc(OCC(=O)OCC(=O)NCc2cccs2)c1,,inactive: 2.12%
O=S(=O)(c1ccc(SCc2ccc(Br)cc2)nc1)N1CCOCC1,,inactive: -4.56%
COc1cc(Cl)c(C)cc1NC(=O)c1ccc(CN2C(=O)CCn3nc(C)cc32)cc1,"inconclusive: 14.6 µM [falling, partial curve, poor fit]",
Cc1c(Cl)cccc1NC(=O)CSc1ncc(S(=O)(=O)c2ccc(C(C)C)cc2)c(=O)[nH]1,,inactive: 0.966%
c1ccc(-c2cc(CSc3nc4ccccc4[nH]3)on2)cc1,"inconclusive: 16.4 µM [falling, single point]",
O=C(CSCc1nc2ccccc2[nH]1)Nc1ccc(Oc2ccccc2)cc1,"inconclusive: 32.6 µM [falling, partial curve, poor fit]",
CCNC(=S)NNC(=O)c1ccc(S(=O)(=O)NCc2ccco2)cc1,"inconclusive: 20.6 µM [falling, partial curve, poor fit]",
CC1CCCCN1CC(O)COCCC12CC3CC(CC(C3)C1)C2 (centres undefined),,inactive: -18%
CCOC(=O)c1c(C)[nH]c(C)c1S(=O)(=O)N1CCCC(C(=O)Nc2ccc(C)c(N(C)C)c2)C1 (centres undefined),,inactive: 16.6%
Cc1ccc(OCC(=O)N(Cc2ccco2)c2ccccn2)cc1,"inconclusive: 7.31 µM [activator, partial curve, poor fit]",
Cn1cccc1CC(=O)N/N=C/C=C/c1ccccc1,"inconclusive: 16.4 µM [activator, partial curve, poor fit]",
CCOc1ccc(NC(=O)CCC(=O)NNC(=O)COc2ccc(C)cc2Br)cc1,"inconclusive: 8.2 µM [activator, partial curve]",
O=C(Nc1ccc(SC(F)F)cc1)C1=COCCO1,"inconclusive: 18.4 µM [activator, single point]",
Cc1c(Cl)c([N+](=O)[O-])nn1CCCC(=O)Nc1cc(Oc2ccccc2)cc([N+](=O)[O-])c1,,inactive: 19.9%
CCOc1ccc(OCC(=O)Nc2ccccc2C(F)(F)F)cc1,"inconclusive: 20.6 µM [activator, single point]",
O=C(c1ccccc1Cl)N1CCc2ccccc2C1,"inconclusive: 25.9 µM [activator, single point]",
Nc1ccc(/C=C/c2ccc3ncccc3c2)cc1,"inconclusive: 23.1 µM [activator, single point]",
O=C(NCCN1CCOCC1)C1(C(F)(F)F)CC(CCCO)CCCO1 (centres undefined),,inactive: 12.9%
COC(=O)c1ccc(N/C=C\C(=O)c2ccc3c(c2)OCO3)cc1,"inconclusive: 1.84 µM [activator, full curve]",
